Source: the supplement of paper PMC4604168 (melanoma cell lines)
The other results are listed elsewhere or left out. Many values rest on one well or one pass, so single values are uncertain.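 Cells were imaged in 1,536-well plates, and nuclei stained with an antibody against cleaved PARP were counted against all DNA-stained nuclei to give the apoptosis fraction. Screening doses were chosen to leave most cells alive, and resting and induced cleaved-PARP levels differ strongly between cell lines.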

Legend:
Assay in all cases: cleaved PARP positive nuclei fraction relative to DMSO control; melanoma cells; higher = more apoptosis
Details in all cases: library dose: low library concentration; 72 h
501Mel = tested on: 501Mel
A101D = tested on: A101D
A2058 = tested on: A2058
C32 = tested on: C32
CBRC008 = tested on: CBRC008 (line from a melanoma biopsy)
CBRC014 = tested on: CBRC014 (line from a melanoma biopsy)
CBRC016 = tested on: CBRC016 (line from a melanoma biopsy)
CBRC017 = tested on: CBRC017 (line from a melanoma biopsy)
COLO792 = tested on: COLO792
COLO800 = tested on: COLO800
COLO829 = tested on: COLO829
G361 = tested on: G361
IPC-298 = tested on: IPC-298
IST-MEL1 = tested on: IST-MEL1
LB2518-MEL = tested on: LB2518-MEL
LOXIMVI = tested on: LOXIMVI

Row | Structure (SMILES) | cleaved PARP positive nuclei fraction (501Mel) | cleaved PARP positive nuclei fraction (A101D) | cleaved PARP positive nuclei fraction (A2058) | cleaved PARP positive nuclei fraction (C32) | cleaved PARP positive nuclei fraction (CBRC008) | cleaved PARP positive nuclei fraction (CBRC014) | cleaved PARP positive nuclei fraction (CBRC016) | cleaved PARP positive nuclei fraction (CBRC017) | cleaved PARP positive nuclei fraction (COLO792) | cleaved PARP positive nuclei fraction (COLO800) | cleaved PARP positive nuclei fraction (COLO829) | cleaved PARP positive nuclei fraction (G361) | cleaved PARP positive nuclei fraction (IPC-298) | cleaved PARP positive nuclei fraction (IST-MEL1) | cleaved PARP positive nuclei fraction (LB2518-MEL) | cleaved PARP positive nuclei fraction (LOXIMVI)
1 | O=C(O)c1ccc2c(c1)nc(Nc1cccc(Cl)c1)c1ccncc12 + O=c1cc(-c2cccc3c2Sc2ccccc2S3)oc(N2CCOCC2)c1 [KU55933] (first compound 0.4 µM, partner dose 1 µM) | 80% | 53.5% | 128% | 162% | 66.2% | 167% | 90.6% | 186% | 81.7% | 45.2% | 91.9% | 86.9% | 49.8% | 197% | 113% | 128%
2 | CN1CCN(c2ccc3nc(-c4c(N)c5c(F)cccc5[nH]c4=O)[nH]c3c2)CC1 [Dovitinib] + c1cc(-c2cnn3cc(-c4ccc(OCCN5CCCCC5)cc4)cnc23)ccn1 [Dorsomorphin] (first compound 0.1 µM, partner dose 0.4 µM) | 71.9% | 50.2% | 183% | 64.6% | 226% | 91.4% | 67.4% | 140% | 24.1% | 157% | 209% | 64% | 96% | 107% | 169% | 85.8%
3 | Cc1cc(Nc2cc(N3CCN(C)CC3)nc(/C=C/c3ccccc3)n2)n[nH]1 + CC(C)CCN1c2nc(Nc3cc(F)c(O)c(F)c3)ncc2N(C)C(=O)C1C [BID1870] (first compound 0.04 µM, partner dose 0.2 µM) | 78.4% | 12.6% | 57.8% | 105% | 247% | 120% | 94% | 110% | 92% | 273% | 68.5% | 116% | 89.7% | 107% | 65.5% | 97.9%
4 | CNC(=O)c1cc(Oc2ccc(NC(=O)Nc3ccc(Cl)c(C(F)(F)F)c3)cc2)ccn1 [sorafenib] + CCN(CC)CCCCNc1ncc2cc(-c3cc(OC)cc(OC)c3)c(NC(=O)NC(C)(C)C)nc2n1 [PD173074] (first compound 0.4 µM, partner dose 0.1 µM) | 60.2% | 52.2% | 147% | 83.7% | 53.9% | 83.3% | 138% | 109% | 13.3% | 70.5% | 71.4% | 53.6% | 150% | 112% | 27.4% | 133%
5 | C[C@@H](Oc1cc(-c2cnn(C3CCNCC3)c2)cnc1N)c1c(Cl)ccc(F)c1Cl [Crizotinib] + N#Cc1c(O)c2c(-c3ccc(-c4ccccc4O)cc3)csc2[nH]c1=O [A769662] (first compound 0.2 µM, partner dose 2 µM) | 95.6% | 25.9% | 80.6% | 32.7% | 94.2% | 77.6% | 49.4% | 298% | 84.1% | 119% | 91.5% | 94% | 95.3% | 37.8% | 70.2% | 49.3%
6 | O=C(O)[C@@H]1[O][Sb](=[O])([O][Sb]2(=[O])[O][C@H]([C@H](O)CO)[C@H](O)[C@H](C(=O)O)[O]2)[O][C@H]([C@H](O)CO)[C@@H]1O (stereo partly specified) [stibogluconate] + O=C(Nc1ccccc1)c1cc([N+](=O)[O-])ccc1Cl [GW9662] (first compound 2 µM, partner dose 2 µM) | 72.1% | 2600% | 80.2% | 81.8% | 150% | 95.9% | 47.2% | 95.1% | 59.1% | 69.7% | 124% | 72.5% | 84.9% | 27.9% | 68.7% | 128%
7 | C[C@@H](Oc1cc(-c2cnn(C3CCNCC3)c2)cnc1N)c1c(Cl)ccc(F)c1Cl [Crizotinib] + COc1cc(N2CCC(N3CCN(C)CC3)CC2)ccc1Nc1ncc(Cl)c(Nc2ccccc2S(=O)(=O)C(C)C)n1 [NVP-TAE684] (first compound 0.2 µM, partner dose 0.08 µM) | 136% | 26.9% | 193% | 130% | 66.3% | 45.6% | 32.8% | 57.6% | 104% | 136% | 332% | 71.1% | 28.3% | 150% | 53.1% | 80.4%
8 | CCCS(=O)(=O)Nc1ccc(F)c(C(=O)c2c[nH]c3ncc(Cl)cc23)c1F + CCCCCCCCCCCC1=C(O)C(=O)C=C(O)C1=O [Embelin] (first compound 0.08 µM, partner dose 1.2 µM) | 177% | 65.8% | 32.4% | 92.2% | 41.2% | 57.4% | 80.9% | 65.9% | 55% | 92.4% | 39.2% | 120% | 54.3% | 130% | 81% | 396%
9 | C=C(c1ccc(C(=O)O)cc1)c1cc2c(cc1C)C(C)(C)CCC2(C)C [Bexarotene] + Cn1cc(/C=C2\C(=O)Nc3cccnc32)c2ccccc21 [GW441756] (first compound 2 µM, partner dose 0.4 µM) | 72.7% | 9.49% | 74.1% | 81.6% | 342% | 136% | 220% | 450% | 149% | 30.5% | 133% | 47% | 95.5% | 109% | 53.8% | 63.4%
10 | CCCS(=O)(=O)Nc1ccc(F)c(C(=O)c2c[nH]c3ncc(Cl)cc23)c1F + Cc1cc([N+](=O)[O-])ccc1NS(=O)(=O)c1cc(Cl)ccc1Cl [FH535] (first compound 0.08 µM, partner dose 1 µM) | 59.1% | 51% | 80.8% | 69.7% | 546% | 133% | 1430% | 368% | 125% | 104% | 44.2% | 129% | 207% | 156% | 178% | 106%
11 | CNC(=O)c1cc(Oc2ccc(NC(=O)Nc3ccc(Cl)c(C(F)(F)F)c3)cc2)ccn1 [sorafenib] + Oc1cc(-c2nc(-c3ccccc3)[nH]c2-c2ccncc2)ccc1Cl [L779450] (first compound 0.4 µM, partner dose 0.2 µM) | 106% | 20.7% | 40.1% | 69.4% | 315% | 113% | 26.9% | 119% | 156% | 68.5% | 66.6% | 154% | 98.2% | 116% | 65.9% | 76.1%
12 | Cn1c(=O)n(-c2ccc(C(C)(C)C#N)cc2)c2c3cc(-c4cnc5ccccc5c4)ccc3ncc21 + c1cc(-c2cnn3cc(-c4ccc(OCCN5CCCCC5)cc4)cnc23)ccn1 [Dorsomorphin] (first compound 0.004 µM, partner dose 0.4 µM) | 101% | 30.1% | 166% | 104% | 156% | 79.2% | 41.7% | 102% | 137% | 105% | 91.2% | 115% | 143% | 169% | 120% | 77.4%
13 | C=C(c1ccc(C(=O)O)cc1)c1cc2c(cc1C)C(C)(C)CCC2(C)C [Bexarotene] + c1cc(-c2cnn3cc(-c4ccc(OCCN5CCCCC5)cc4)cnc23)ccn1 [Dorsomorphin] (first compound 2 µM, partner dose 0.4 µM) | 145% | 43.3% | 91.9% | 50.3% | 67.7% | 139% | 102% | 119% | 67.4% | 157% | 69.3% | 193% | 32.3% | 134% | 122% | 14.6%
14 | CC(C)C[C@H](NC(=O)[C@H](Cc1ccccc1)NC(=O)c1cnccn1)B(O)O [Bortezomib] + CCc1ccc(CCOc2ccc(CC3SC(=O)NC3=O)cc2)nc1 [pioglitazone] (first compound 0.001 µM, partner dose 2 µM) | 105% | 78.5% | 111% | 145% | 1010% | 594% | 219% | 180% | 101% | 44.8% | 211% | 1990% | 134% | 223% | 254% | 134%
15 | C[C@@H](Oc1cc(-c2cnn(C3CCNCC3)c2)cnc1N)c1c(Cl)ccc(F)c1Cl [Crizotinib] + CC(C)CCN1c2nc(Nc3cc(F)c(O)c(F)c3)ncc2N(C)C(=O)C1C [BID1870] (first compound 0.2 µM, partner dose 0.2 µM) | 61.5% | 4.9% | 104% | 75.5% | 195% | 137% | 60.2% | 322% | 73.2% | 11.8% | 56.2% | 96.5% | 60.8% | 13.4% | 63.1% | 68.1%
16 | Nc1ccn([C@@H]2O[C@H](CO)[C@@H](O)C2(F)F)c(=O)n1 [gemcitabine] + Oc1nc(-c2ccc(C(F)(F)F)cc2)nc2c1CSCC2 [XAV939] (first compound 0.0004 µM, partner dose 2 µM) | 125% | 43.2% | 101% | 75.4% | 110% | 346% | 89.4% | 197% | 169% | 153% | 62% | 156% | 192% | 86.6% | 74.2% | 61.7%

Some entries already given with just cleaved PARP positive nuclei fraction (LOXIMVI) and cleaved PARP positive nuclei fraction (COLO800).
Row	Structure (SMILES)	cleaved PARP positive nuclei fraction (LOXIMVI)	cleaved PARP positive nuclei fraction (COLO800)
5	C[C@@H](Oc1cc(-c2cnn(C3CCNCC3)c2)cnc1N)c1c(Cl)ccc(F)c1Cl [Crizotinib] + N#Cc1c(O)c2c(-c3ccc(-c4ccccc4O)cc3)csc2[nH]c1=O [A769662] (first compound 0.2 µM, partner dose 2 µM)	49.3%	119%
6	O=C(O)[C@@H]1[O][Sb](=[O])([O][Sb]2(=[O])[O][C@H]([C@H](O)CO)[C@H](O)[C@H](C(=O)O)[O]2)[O][C@H]([C@H](O)CO)[C@@H]1O (stereo partly specified) [stibogluconate] + O=C(Nc1ccccc1)c1cc([N+](=O)[O-])ccc1Cl [GW9662] (first compound 2 µM, partner dose 2 µM)	128%	69.7%
